{"sequences": {"note": "Amino acid sequences for entries named in this document (tags omitted).", "UniProt Q0JBA9, entry or part of it": "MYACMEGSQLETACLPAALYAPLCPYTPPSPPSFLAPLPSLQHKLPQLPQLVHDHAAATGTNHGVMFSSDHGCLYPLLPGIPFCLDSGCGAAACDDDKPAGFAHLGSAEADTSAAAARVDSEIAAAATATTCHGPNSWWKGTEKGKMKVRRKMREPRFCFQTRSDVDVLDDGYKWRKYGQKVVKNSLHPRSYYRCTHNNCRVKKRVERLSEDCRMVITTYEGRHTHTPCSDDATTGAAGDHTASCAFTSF"}, "source": "paper PMC7819943", "about": "“Rice protein-binding microarrays: a tool to detect cis-acting elements near promoter regions in rice”", "note": "The list shows a part of the results.", "data": [{"target": "OsWRKY34 (Oryza sativa, UniProt Q0JBA9 1-250)", "experiment": "protein-binding microarray (RPBM); PBS, 2% BSA, 51.3 ng/ul salmon testes DNA, 50 uM zinc acetate, 200 nM TF, 25 C, 1 h; high values mean tight binding", "conditions": "protein: recombinant; tags: N-terminal polyhistidine and DsRed monomer fusion (pET32a); label: CyDye5-dUTP incorporated in the synthesized complementary strand; 3' TTTTT single-stranded linker to array surface; dsDNA, one strand shown", "outline": "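Binding signal here means per-feature fluorescence intensity in arbitrary units. The values were read on an Axon 4000B scanner after a custom Agilent array, double-stranded by primer extension with Cy5-dUTP, was incubated with 200 nM protein at 25 °C for 1 h in PBS with 2% BSA, salmon testes DNA and 50 µM zinc acetate, then washed. The proteins were transcription factors with an N-terminal polyhistidine tag and DsRed, expressed in E. coli BL21-CodonPlus and purified on Ni–NTA.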", "values": [{"sequence": "AATTCCCATGCTCTCTCATCCTTCTCTTCCATTCCCAGCTCGGAGTCACCTAGTGCAG", "binding signal": "8660 fluorescence intensity (a.u.)"}, {"sequence": "TTGTTTTTATCTATGTTTAATGCTTCATATATGTGCACAACGGAGTCACCTAGTGCAG", "binding signal": "8190 fluorescence intensity (a.u.)"}, {"sequence": "GGTTTATTTGGGACAGGTGGGAGGTTGGTAAGTGAGAATACGGAGTCACCTAGTGCAG", "binding signal": "9080 fluorescence intensity (a.u.)"}, {"sequence": "GCGTCTCTCACCGCCATGCTCGTGGCCGCCTCCCGCGATGCGGAGTCACCTAGTGCAG", "binding signal": "8950 fluorescence intensity (a.u.)"}, {"sequence": "ATGCAATTGATCCCTCCTGCCCTCCAGTAGCAACATTCTTCGGAGTCACCTAGTGCAG", "binding signal": "8800 fluorescence intensity (a.u.)"}, {"sequence": "TACATACTACACTATTAATATCTGGTCCACATATCATACACGGAGTCACCTAGTGCAG", "binding signal": "10000 fluorescence intensity (a.u.)"}, {"sequence": "GTGACCTTTGGCAAGGCGACGACGACTTGGAGGGGAGGGCCGGAGTCACCTAGTGCAG", "binding signal": "8530 fluorescence intensity (a.u.)"}, {"sequence": "TTTTCGCCTTTCTATCTTTGTCAAGGCACACTTCCTTTTGCGGAGTCACCTAGTGCAG", "binding signal": "10000 fluorescence intensity (a.u.)"}, {"sequence": "CTCCTTCATCTGATCTGTCACTGACATCGCGGGCCCACAACGGAGTCACCTAGTGCAG", "binding signal": "8400 fluorescence intensity (a.u.)"}, {"sequence": "TGACATGCCATACCCGACATCACCTGTCATTGTCGCAACACGGAGTCACCTAGTGCAG", "binding signal": "9900 fluorescence intensity (a.u.)"}, {"sequence": "TTAGGGGTTTTCATTATACTGTAAGTATGTCTTTTTATTTCGGAGTCACCTAGTGCAG", "binding signal": "8240 fluorescence intensity (a.u.)"}, {"sequence": "AATGGTGGGCCCCACGTGGACCCCACCTGTCATCCTCGCTCGGAGTCACCTAGTGCAG", "binding signal": "8180 fluorescence intensity (a.u.)"}, {"sequence": "AATCCCATTTATATTTATTATTTTTGTTATAACTTGTATACGGAGTCACCTAGTGCAG", "binding signal": "9840 fluorescence intensity (a.u.)"}, {"sequence": "TTATGAGCGGCCTCTACCTCATCCCATCTTCTCTCACACCCGGAGTCACCTAGTGCAG", "binding signal": "8590 fluorescence intensity (a.u.)"}, {"sequence": "AGCTACGACAGCGTCATTCTGTCTCTGGTTTGAGGTCTCTCGGAGTCACCTAGTGCAG", "binding signal": "8930 fluorescence intensity (a.u.)"}, {"sequence": "TGGTCTACCCATCTTCCCAACCTTCTTGTCACCTACTCTTCGGAGTCACCTAGTGCAG", "binding signal": "9560 fluorescence intensity (a.u.)"}, {"sequence": "CATATTACTTCTCATATTATACTTGTTTATTCTTCTATTGCGGAGTCACCTAGTGCAG", "binding signal": "9010 fluorescence intensity (a.u.)"}, {"sequence": "GGTACTCTGGGGTTATAAGTTAATGGGTATGGTATTGTGACGGAGTCACCTAGTGCAG", "binding signal": "11000 fluorescence intensity (a.u.)"}, {"sequence": "GGTGGTCGACGGCGCGCGTGGGCTTCGGCATGGCCACTTCCGGAGTCACCTAGTGCAG", "binding signal": "8370 fluorescence intensity (a.u.)"}, {"sequence": "CATGTTTACGTAAGGTTTTTGTTCGGTTTTCCTTATAAAACGGAGTCACCTAGTGCAG", "binding signal": "9710 fluorescence intensity (a.u.)"}, {"sequence": "TGATCCCCATTTGTCTCAATGACGCTGTTGTCAGTCTTGACGGAGTCACCTAGTGCAG", "binding signal": "10200 fluorescence intensity (a.u.)"}, {"sequence": "AATGGGGTTGGTCGTATCTATCGTAGGTGGATTATTTACCCGGAGTCACCTAGTGCAG", "binding signal": "12800 fluorescence intensity (a.u.)"}, {"sequence": "GCTGTGGTCATGGACAGGGGACGGGCTGGGGTCGTCGCGCCGGAGTCACCTAGTGCAG", "binding signal": "8090 fluorescence intensity (a.u.)"}, {"sequence": "CCGTTAAGCGCCGCGACCGACCGAACCGACCGGCCGGTATCGGAGTCACCTAGTGCAG", "binding signal": "8620 fluorescence intensity (a.u.)"}, {"sequence": "GCCATTTGCACATCTCTCTCTCTCGCTTCTGCCACTGCTGCGGAGTCACCTAGTGCAG", "binding signal": "10100 fluorescence intensity (a.u.)"}, {"sequence": "TCCCTATATATCTATCTCTCTGACTATCTTGTTCACATACCGGAGTCACCTAGTGCAG", "binding signal": "8310 fluorescence intensity (a.u.)"}, {"sequence": "CGTGGTCGTCTCTGGAGTTCTTGTGCTGCTTTTAGCCATCCGGAGTCACCTAGTGCAG", "binding signal": "10500 fluorescence intensity (a.u.)"}, {"sequence": "TTCTCTACATTGTTCATTTAGTATTTTTTTCTTTTCATTTCGGAGTCACCTAGTGCAG", "binding signal": "10700 fluorescence intensity (a.u.)"}, {"sequence": "TATGTATATACATGACGTGTTTTTTTTCTTTCCGTATCTTCGGAGTCACCTAGTGCAG", "binding signal": "10100 fluorescence intensity (a.u.)"}, {"sequence": "GGCCATGGCGCAATCACTTCTAGGAGTACCATTCTCTCGCCGGAGTCACCTAGTGCAG", "binding signal": "8370 fluorescence intensity (a.u.)"}, {"sequence": "ACCTCTCTCGTGTCGCGTGCCATTCGCCATCGCCACCACCCGGAGTCACCTAGTGCAG", "binding signal": "10500 fluorescence intensity (a.u.)"}, {"sequence": "TACTCCGTACAAATTTTCTTCTGGATCCCACCTCTGCTCTCGGAGTCACCTAGTGCAG", "binding signal": "9050 fluorescence intensity (a.u.)"}, {"sequence": "AGTCGTAGAGCTACACAGATTACTTGGCTTATATCTCACACGGAGTCACCTAGTGCAG", "binding signal": "8460 fluorescence intensity (a.u.)"}, {"sequence": "GCCGCTGCATCTCCCTTTGTGTCTTAGTTAGTTTAATCCCCGGAGTCACCTAGTGCAG", "binding signal": "10700 fluorescence intensity (a.u.)"}, {"sequence": "TCCAGGTGGGAAGAGTTGTTGGTGTGTCAGGTTGTCCAATCGGAGTCACCTAGTGCAG", "binding signal": "10000 fluorescence intensity (a.u.)"}, {"sequence": "CGGAGTGTTCCCAGTACAGCACCTGCCACATTTACCAGTCCGGAGTCACCTAGTGCAG", "binding signal": "9280 fluorescence intensity (a.u.)"}, {"sequence": "CGGTCCTTTTCTGCTTTGGTTGGTTCGCCTCTTATATCCTCGGAGTCACCTAGTGCAG", "binding signal": "10900 fluorescence intensity (a.u.)"}, {"sequence": "TTATTAATTGGATGTTAACTTTGATATCTTTGTTTACTAACGGAGTCACCTAGTGCAG", "binding signal": "8080 fluorescence intensity (a.u.)"}, {"sequence": "CTTCTCTTCGACCACGCGAACACCTATCCATTCTGTGAGGCGGAGTCACCTAGTGCAG", "binding signal": "10500 fluorescence intensity (a.u.)"}, {"sequence": "GCAGTCTTGTAGTCTCGTGCACCAATCGTCGCGCCGCGGCCGGAGTCACCTAGTGCAG", "binding signal": "8400 fluorescence intensity (a.u.)"}, {"sequence": "GCGGGCGTTCGGTAGACAGTTTGTTTCTCTAATCACTTCCCGGAGTCACCTAGTGCAG", "binding signal": "11800 fluorescence intensity (a.u.)"}, {"sequence": "CGCTGAATCTGAAATTCTGAATGCATTTTCTATTTCTTCTCGGAGTCACCTAGTGCAG", "binding signal": "8200 fluorescence intensity (a.u.)"}, {"sequence": "TTTATTAGTTTGTGTCCTGGTTTTCTTTTTCAGTTAGATTCGGAGTCACCTAGTGCAG", "binding signal": "8430 fluorescence intensity (a.u.)"}, {"sequence": "AGACTTTTTTTTAATATGACATATTTTTCTTTCCATTTTTCGGAGTCACCTAGTGCAG", "binding signal": "10900 fluorescence intensity (a.u.)"}, {"sequence": "GCGCCCTTGCCTGCTCTGCCTCCATATGCTGCTCGCCGGCCGGAGTCACCTAGTGCAG", "binding signal": "15600 fluorescence intensity (a.u.)"}, {"sequence": "GTGTGTTTTGAGTGTTAGTTTTCGACTATCATGTCTGCTTCGGAGTCACCTAGTGCAG", "binding signal": "10800 fluorescence intensity (a.u.)"}, {"sequence": "TTCTGGTTCTTGGACTCCCTGTTCTTGGTTCCTGCATTTCCGGAGTCACCTAGTGCAG", "binding signal": "14200 fluorescence intensity (a.u.)"}, {"sequence": "TAACTTACATATATGCCCCACATTTCTTGTTTTAATTTTTCGGAGTCACCTAGTGCAG", "binding signal": "11400 fluorescence intensity (a.u.)"}, {"sequence": "TCAGGCTCAACTGTAGCTCATGGTCTCATCCCAGGGAGATCGGAGTCACCTAGTGCAG", "binding signal": "8240 fluorescence intensity (a.u.)"}, {"sequence": "TGCTTGTGGACTACCCTTTCTTCTTCTGTTATTACCAGGTCGGAGTCACCTAGTGCAG", "binding signal": "10800 fluorescence intensity (a.u.)"}, {"sequence": "CCTCGTCCAGGATCGCCATCTCCTGACCCACCGCGCGCCCCGGAGTCACCTAGTGCAG", "binding signal": "8130 fluorescence intensity (a.u.)"}, {"sequence": "CATGTTGACTCTGTTTAATTCCACATCGTCTTCCTTGATCCGGAGTCACCTAGTGCAG", "binding signal": "12800 fluorescence intensity (a.u.)"}, {"sequence": "ACGACTCAGCCCCACCGCGCCGCCTCCGACTCCACCCCATCGGAGTCACCTAGTGCAG", "binding signal": "9200 fluorescence intensity (a.u.)"}, {"sequence": "CATCACCATCACCCATGTCCAATTATCAACTATGTCGGTTCGGAGTCACCTAGTGCAG", "binding signal": "9060 fluorescence intensity (a.u.)"}]}]}
